{"source": "PubChem BioAssay AID1053208 (Peter MacCallum Cancer Centre, 2014)", "aim": "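Genes whose silencing cuts survival of bone tumour cells only with doxorubicin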 (primary screen)", "cell system": "mouse osteosarcoma cells, early-passage culture from an engineered mouse model of fibroblastic bone tumour", "reagents": "siRNA pool against mouse genes, 40 nM", "duration": "about 120 h (48 h before drug, then 72 h with drug)", "conditions": "doxorubicin 100 nM for 72 h, roughly 30-40% inhibitory dose", "detection": "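Viability read as ATP luminescence after 72 h of 100 nM doxorubicin or none, duplicate wells averaged, scaled to non-targeting siRNA, then expressed as robust z-scores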", "reading the numbers": "viability z-score with doxorubicin: higher = more viable cells under doxorubicin; viability z-score without drug: higher = more viable cells with knock-down alone", "call rule": "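Called active if knock-down leaves viability unchanged without drug (z within -2 to 2) but lowers it with doxorubicin (z at or under -2)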", "note": "The whole screen tested about 17,000 reagents; this is a random part of them. Over the whole deposit, 788 (4.7%) are marked active. 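Calls rest on z-score classes alone; an extra cut-off of viability at most 70% of control was not applied to them.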 Entries without a mark were called inactive. Reagents against one gene are numbered here. Further read-outs or replicates are left out here. No sequences are given here."}
{"target":"Pak3 (p21 (RAC1) activated kinase 3)","reagent":1,"combined z-score class":"no change with or without drug","viability z-score with doxorubicin":0.67,"viability z-score without drug":0.51}
{"target":"Rwdd3 (RWD domain containing 3)","reagent":1,"combined z-score class":"no change with or without drug","viability z-score with doxorubicin":-0.56,"viability z-score without drug":0.17}
{"target":"Rwdd3 (RWD domain containing 3)","reagent":2,"combined z-score class":"no change with or without drug","viability z-score with doxorubicin":0.11,"viability z-score without drug":0.84}
{"target":"Nxn (nucleoredoxin)","reagent":1,"combined z-score class":"no change with or without drug","viability z-score with doxorubicin":0.67,"viability z-score without drug":-0.17}
{"target":"Zfp101 (zinc finger protein 101)","reagent":1,"combined z-score class":"no change with or without drug","viability z-score with doxorubicin":1.57,"viability z-score without drug":1.18}
{"target":"Krtap1-5 (keratin associated protein 1-5)","reagent":1,"combined z-score class":"no change with or without drug","viability z-score with doxorubicin":0.9,"viability z-score without drug":0.17}
{"target":"Tubgcp2 (tubulin, gamma complex component 2)","reagent":1,"combined z-score class":"low cell count without drug only","viability z-score with doxorubicin":-0.34,"viability z-score without drug":-2.87}
{"target":"Mpz (myelin protein zero)","reagent":1,"combined z-score class":"no change with or without drug","viability z-score with doxorubicin":0.22,"viability z-score without drug":-0.84}
{"target":"Crispld2 (cysteine-rich secretory protein LCCL domain containing 2)","reagent":1,"combined z-score class":"no change with or without drug","viability z-score with doxorubicin":-0.67,"viability z-score without drug":-0.17}
{"target":"Rangrf (RAN guanine nucleotide release factor)","reagent":1,"combined z-score class":"high cell count without drug only","viability z-score with doxorubicin":1.69,"viability z-score without drug":2.19}
{"target":"Rpl10a (ribosomal protein L10A)","reagent":1,"combined z-score class":"no change with or without drug","viability z-score with doxorubicin":-0.9,"viability z-score without drug":-0.51}
{"target":"Or8u8 (olfactory receptor family 8 subfamily U member 8)","reagent":1,"combined z-score class":"no change with or without drug","viability z-score with doxorubicin":-0.22,"viability z-score without drug":0}
{"target":"Ttn (titin)","reagent":1,"combined z-score class":"no change with or without drug","viability z-score with doxorubicin":-1.24,"viability z-score without drug":-0.17}
{"target":"Ttn (titin)","reagent":2,"combined z-score class":"no change with or without drug","viability z-score with doxorubicin":1.35,"viability z-score without drug":-0.17}
{"target":"Arfgef2 (ARF guanine nucleotide exchange factor 2)","reagent":1,"combined z-score class":"no change with or without drug","viability z-score with doxorubicin":-0.9,"viability z-score without drug":-0.17}
{"target":"Egf (epidermal growth factor)","reagent":1,"combined z-score class":"no change with or without drug","viability z-score with doxorubicin":0.67,"viability z-score without drug":1.18}
{"target":"Stat1 (signal transducer and activator of transcription 1)","reagent":1,"combined z-score class":"no change with or without drug","viability z-score with doxorubicin":0.34,"viability z-score without drug":-0.17}
{"target":"Evi2a (ecotropic viral integration site 2a)","reagent":1,"combined z-score class":"no change with or without drug","viability z-score with doxorubicin":0.56,"viability z-score without drug":0.17}
{"target":"Srf (serum response factor)","reagent":1,"combined z-score class":"no change with or without drug","viability z-score with doxorubicin":0.67,"viability z-score without drug":-1.18}
{"target":"Zfp36l1 (zinc finger protein 36, C3H type-like 1)","reagent":1,"combined z-score class":"no change with or without drug","viability z-score with doxorubicin":0.11,"viability z-score without drug":-0.51}

Limited to “viability z-score with doxorubicin”, for 3 of the entries above:
Pak3 (p21 (RAC1) activated kinase 3) = 0.67
Rwdd3 (RWD domain containing 3) #1 = -0.56
Rwdd3 (RWD domain containing 3) #2 = 0.11

Next records follow.
{"target":"Dhx35 (DEAH-box helicase 35)","reagent":1,"combined z-score class":"no change with or without drug","viability z-score with doxorubicin":1.46,"viability z-score without drug":0.67}
{"target":"Rps19bp1 (ribosomal protein S19 binding protein 1)","reagent":1,"combined z-score class":"no change with or without drug","viability z-score with doxorubicin":0.22,"viability z-score without drug":1.35}
{"target":"Ins2 (insulin II)","reagent":1,"combined z-score class":"high cell count with doxorubicin only","viability z-score with doxorubicin":2.7,"viability z-score without drug":1.52}
{"target":"Tbx20 (T-box 20)","reagent":1,"combined z-score class":"no change with or without drug","viability z-score with doxorubicin":-1.24,"viability z-score without drug":-1.52}
{"target":"4932414N04Rik (RIKEN cDNA 4932414N04 gene)","reagent":1,"combined z-score class":"no change with or without drug","viability z-score with doxorubicin":0.45,"viability z-score without drug":-0.34}
{"target":"Endou (endonuclease, polyU-specific)","reagent":1,"combined z-score class":"no change with or without drug","viability z-score with doxorubicin":1.35,"viability z-score without drug":0.17}
{"target":"Arrb1 (arrestin, beta 1)","reagent":1,"combined z-score class":"no change with or without drug","viability z-score with doxorubicin":-0.22,"viability z-score without drug":1.18}
{"target":"Hars2 (histidyl-tRNA synthetase 2)","reagent":1,"combined z-score class":"no change with or without drug","viability z-score with doxorubicin":0.22,"viability z-score without drug":0.84}
{"target":"Cdr2 (cerebellar degeneration-related 2)","reagent":1,"combined z-score class":"no change with or without drug","viability z-score with doxorubicin":-0.11,"viability z-score without drug":1.35}
{"target":"Slc10a3","reagent":1,"combined z-score class":"no change with or without drug","viability z-score with doxorubicin":0.79,"viability z-score without drug":1.18}
{"target":"Naaa (N-acylethanolamine acid amidase)","reagent":1,"combined z-score class":"no change with or without drug","viability z-score with doxorubicin":-0.11,"viability z-score without drug":1.18}
{"target":"Aasdh (aminoadipate-semialdehyde dehydrogenase)","reagent":1,"combined z-score class":"no change with or without drug","viability z-score with doxorubicin":0.34,"viability z-score without drug":-0.84}
{"target":"Cemip (cell migration inducing protein, hyaluronan binding)","reagent":1,"combined z-score class":"no change with or without drug","viability z-score with doxorubicin":-0.9,"viability z-score without drug":1.52}
{"target":"Dynlt5 (dynein light chain Tctex-type 5)","reagent":1,"combined z-score class":"no change with or without drug","viability z-score with doxorubicin":-0.67,"viability z-score without drug":0.84}
{"target":"Rbm48 (RNA binding motif protein 48)","reagent":1,"combined z-score class":"no change with or without drug","viability z-score with doxorubicin":-0.45,"viability z-score without drug":-1.18}
{"target":"Slc5a6","reagent":1,"combined z-score class":"no change with or without drug","viability z-score with doxorubicin":-0.9,"viability z-score without drug":0.17}
